These are yes or no findings as the source states them, for the method shown. Binding seen in cells or lysates may run through a third protein. Some entries that bind do so weakly or less than the wild type. Each block holds one substance with its values, some of them ahead of it.
How the values were obtained:
[1] = target: Myc-tagged ZNRF3 full-length (FL), expressed in 293T cells (UniProt Q9ULT6); assay: co-IP; 293T cells co-transfected with EGFR and Myc-tagged ZNRF3 constructs; lysate amounts adjusted to comparable EGFR; Myc-tag IP followed by EGFR immunoblotting
[2] = target: EGFR, transfected in 293T cells (UniProt P00533); assay: co-IP; 293T cells co-transfected with EGFR and Myc-tagged ZNRF3 constructs; lysate amounts adjusted to comparable EGFR; EGFR IP followed by Myc-tag immunoblotting
[3] = target: EGFR, ectopically expressed in MDA-MB-231 cells (UniProt P00533); assay: co-IP; lysates of MDA-MB-231 cells co-infected with lentivirus carrying EGFR and Myc-tagged ZNRF3 or RNF43; anti-EGFR IP, Protein G Sepharose, overnight at 4°C; NP-40 or RIPA lysis buffer

By UniProt entry, the sequences of proteins in these tests, tags left out. Residues count along the entry.
UniProt Q9ULT6, residues 56-936: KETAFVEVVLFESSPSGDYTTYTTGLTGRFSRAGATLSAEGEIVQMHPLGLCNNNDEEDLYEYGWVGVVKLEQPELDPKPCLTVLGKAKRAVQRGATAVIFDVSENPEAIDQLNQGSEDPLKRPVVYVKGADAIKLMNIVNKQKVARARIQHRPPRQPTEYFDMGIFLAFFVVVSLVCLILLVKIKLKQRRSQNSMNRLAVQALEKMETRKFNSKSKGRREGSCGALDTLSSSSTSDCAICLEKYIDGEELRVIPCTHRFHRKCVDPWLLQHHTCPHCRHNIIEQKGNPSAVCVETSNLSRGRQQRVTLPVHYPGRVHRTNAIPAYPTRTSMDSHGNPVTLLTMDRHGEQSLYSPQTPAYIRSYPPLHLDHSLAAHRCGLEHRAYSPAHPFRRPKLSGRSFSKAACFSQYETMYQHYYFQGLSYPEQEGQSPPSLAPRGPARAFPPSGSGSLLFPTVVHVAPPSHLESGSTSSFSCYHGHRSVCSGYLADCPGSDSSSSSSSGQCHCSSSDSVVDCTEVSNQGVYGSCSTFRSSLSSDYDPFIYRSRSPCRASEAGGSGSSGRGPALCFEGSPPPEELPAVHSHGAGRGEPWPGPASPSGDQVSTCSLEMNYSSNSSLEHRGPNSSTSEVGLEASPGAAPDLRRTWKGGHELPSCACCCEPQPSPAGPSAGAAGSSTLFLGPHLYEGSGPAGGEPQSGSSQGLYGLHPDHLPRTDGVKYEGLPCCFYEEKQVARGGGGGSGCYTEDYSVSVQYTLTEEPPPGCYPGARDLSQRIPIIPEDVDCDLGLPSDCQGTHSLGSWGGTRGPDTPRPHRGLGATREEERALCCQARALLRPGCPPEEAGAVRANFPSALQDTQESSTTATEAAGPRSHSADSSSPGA

- binding [1]: binds
Substance: EGFR, transfected in 293T cells (from UniProt P00533 25-1210) (receptor)

- binding [2]: binds
Substance: Myc-tagged ZNRF3 full-length (FL), expressed in 293T cells (from UniProt Q9ULT6 56-936) (enzyme)

- binding [3]: binds
Substance: Myc-tagged ZNRF3, expressed in MDA-MB-231 cells (from UniProt Q9ULT6 56-936) (enzyme)

— paper PMC13068435
